In PubChem BioAssay AID2685 (National Center for Advancing Translational Sciences (NCATS), 2010):
This is one part of the list. The main result of the screen is listed elsewhere. These columns were measured beside it and carry no call. Most of these compounds were active or inconclusive in the main read-out, so they are no random draw. The note in brackets gives the kind of curve behind each potency; many fits are weak.

Test: qHTS Assay for Lipid Storage Modulators in Drosophila S3 Cells;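 on cell number change: cells counted by Cell Tracker Red CMTPX staining in the red channel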
Details: BODIPY lipid droplet fluorescence, 18-24 h; for cell number change: measured here: cell count max response, cells fed with added oleic acid
In short: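 Drosophila S3 cells loaded with oleic acid (400 uM, as added) and compounds at several concentrations; lipid droplets imaged by 488-nm laser-scanning cytometry, 500–530 nm intensity and object ratio to cell channel. Percent activity normalized to 20 uM Triacsin C.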

[1] = measured here: cell number channel AC50, cells fed with added oleic acid
[2] = measured here: lipid fluorescence (Fed channel) AC50, cells fed with added oleic acid

| Structure (SMILES) | cell number change [%] | AC50 [1] | AC50 [2] |
| --- | --- | --- | --- |
| Cc1cc(C(=O)COc2ccc(-c3nnco3)cc2)c(C)n1Cc1ccccc1 | -32.3 | 25.9 µM [falling, partial curve] |  |
| Cc1ccc(NC2CCCN(C(=O)c3cc(C(C)C)[nH]n3)C2)cc1C (centres undefined) | 14.5 | 0.00461 µM [rising, full curve, poor fit] |  |
| O=C(Cn1ccc(C(F)(F)F)n1)N/N=C/c1cccs1 | -6.5 |  |  |
| Cc1ccc(C(=O)OCC(=O)NC2CCCCC2)s1 | -27 | 0.146 µM [falling, full curve, poor fit] | 0.92 µM [falling, partial curve] |
| CC1(c2cccc(Br)c2)NC(=O)N(CC(=O)Nc2cccnc2Cl)C1=O (centres undefined) | 2.02 |  |  |
| Cc1c(N(C)S(=O)(=O)c2cccc(C(=O)NC(C)C)c2)c(=O)n(-c2ccccc2)n1C | 5.41 |  | 29.1 µM [falling, single point] |
| Cc1cc(C)n2nc(C(=O)OCC(=O)Nc3ccc4c(c3)OCCO4)nc2n1 | -30.3 | 32.6 µM [falling, single point] | 0.058 µM [falling, full curve, poor fit] |
| COc1ccc(C2CC(=O)Nc3cc(C)c(C)cc32)c(OC)c1OC (centres undefined) | 84.2 | 20.6 µM [rising, partial curve, poor fit] | 1.84 µM [rising, full curve] |
| CCOCc1nnc(NC(=O)c2cc(OC)cc(OC)c2)s1 | 21 | 2.91 µM [rising, single point] |  |
| COc1ccc(Cl)c2sc(N3CCN(C(=O)c4ccco4)CC3)nc12 | -14.7 |  | 23.1 µM [falling, single point] |
| N#Cc1ccc(COC(=O)c2cc(=O)c3ccccc3o2)cc1 | -2.31 |  |  |
| Cc1ccc(S(=O)(=O)N2CCOCC2)cc1NC(=O)CNC1CCCC1 | 9.38 | 0.58 µM [falling, full curve] | 0.58 µM [falling, full curve] |
| COc1ccc(C(=O)NCC(=O)OCC(=O)c2ccc3c(c2)NC(=O)CO3)cc1OC | -8.3 | 0.366 µM [rising, partial curve, poor fit] |  |
| COc1cc([N+](=O)[O-])ccc1NC(=O)CCCOc1ccc(C)cc1 | 35.6 |  |  |
| Cc1c(Cl)c([N+](=O)[O-])nn1Cc1ccc(C(=O)N/N=C\c2cc(Cl)ccc2O)o1 | -32.5 | 0.461 µM [falling, full curve, poor fit] | 9.2 µM [falling, single point] |
| CC(=O)c1ccc(NC(=O)COC(=O)C2CCN(S(=O)(=O)c3cccs3)CC2)cc1 | -1.2 |  |  |
| CCOC(=O)c1c(NC(=O)CSc2nc3cccnc3n2C)sc(C(C)=O)c1C | -4.99 | 5.8 µM [falling, single point] | 6.51 µM [falling, single point] |
| CC(C)(O)C#Cc1ccc(C(=O)N2CCC(C(N)=O)(N3CCCCC3)CC2)cc1 | 44.7 | 0.82 µM [rising, full curve, poor fit] |  |
| Cc1nn(-c2ccccc2)c(N2CCCC2)c1/C=N/Nc1ccc(S(=O)(=O)Nc2ccccc2)cc1[N+](=O)[O-] | -97.4 | 1.3 µM [falling, full curve] | 0.13 µM [falling, full curve, poor fit] |
| COc1cc2cc(CN(CCO)S(=O)(=O)c3ccccc3Cl)c(=O)[nH]c2cc1OC | 4.34 |  |  |
| CSc1ccc(CNC(C)(C)CO)cc1 | 6.37 |  | 23.1 µM [rising, single point] |

Limited to AC50 [1], for two of the compounds above:
Structure (SMILES)	AC50 [1]
CC(C)(O)C#Cc1ccc(C(=O)N2CCC(C(N)=O)(N3CCCCC3)CC2)cc1	0.82 µM [rising, full curve, poor fit]
Cc1nn(-c2ccccc2)c(N2CCCC2)c1/C=N/Nc1ccc(S(=O)(=O)Nc2ccccc2)cc1[N+](=O)[O-]	1.3 µM [falling, full curve]

(next part)

| Structure (SMILES) | cell number change [%] | AC50 [1] | AC50 [2] |
| --- | --- | --- | --- |
| CCOC(=O)N1CCN(C(=O)/C(=C/c2cccs2)NC(=O)c2ccc(OC)c(OC)c2)CC1 | -2.56 | 2.91 µM [rising, partial curve] |  |
| O=C(NCCCN1CCOCC1)c1cnn2c(-c3ccccc3)cc(-c3ccccc3)nc12 | 0.424 |  |  |
| CN(C1CCCCC1)S(=O)(=O)c1ccc(C(=O)O)cc1 | 16.2 |  |  |
| CCOC(=O)c1c(NC(=O)C2c3ccccc3Oc3ccccc32)sc(C(=O)N(CC)CC)c1C | -20 |  |  |
| COc1ccc([C@@H]2[C@@H]3C(=O)N(C(C)(C)C)C(=O)[C@@H]3[C@]3(C)C(=O)N(c4ccccc4)C(=O)N23)cc1 | 21.7 |  |  |
| CCN(CC)S(=O)(=O)c1ccc(NC(=O)c2cccnc2Cl)c(NC(=O)c2cccnc2Cl)c1 | 54.4 |  |  |
| CN1C(=O)/C(=C\C=C2/CCCN2C)N(C)C1=S | 7.14 |  | 6.51 µM [rising, single point] |
| CC1CCN(C(=O)C2CCC(CNS(=O)(=O)c3cccc4cccnc34)CC2)CC1 (centres undefined) | 17.6 | 0.146 µM [rising, full curve, poor fit] |  |
| COc1cc(NC(=O)c2c(Cl)cnn2C)c(OC)cc1Cl | 2.89 |  | 0.092 µM [falling, full curve, poor fit] |
| O=c1c(/C=N/Nc2ccccc2)c(Sc2nnnn2-c2ccccc2)nc2ccccn12 | 20.8 | 0.259 µM [rising, full curve, poor fit] |  |
| CN(C)c1ccc(C2CC(=O)OC3=C2C(=O)CC(C)(C)C3)cc1 (centres undefined) | -19.9 |  | 1.46 µM [falling, full curve] |
| CCn1c(COc2ccccc2)nnc1SCC(=O)CC(=O)Nc1ccccc1OC | 8.18 | 6.51 µM [rising, single point] |  |
| O=C1CCC/C(=N/NC(=O)c2ccc(CN3c4cccc5cccc(c45)S3(=O)=O)cc2)C1 | 11.8 |  |  |
| CC(C)c1ccc(/C=C/C(=O)n2nnc3ccccc32)cc1 | 0.702 |  |  |
| CCCCn1c(NCCN(C)C)nc2c1c(=O)[nH]c(=O)n2C | -27.8 |  | 5.17 µM [falling, partial curve] |
| CCn1ccc(C(=O)Nc2ccc3c(c2)CCC3)n1 | -33.4 | 7.31 µM [falling, partial curve, poor fit] | 29.1 µM [falling, single point] |
| Cc1ccc(NC(=O)CCN2CCN(C/C=C/c3ccccc3)CC2)cc1C | -28.5 |  | 16.4 µM [falling, partial curve] |
| Cc1cccc(-n2ncc3c(Nc4ccc(F)cc4)ncnc32)c1 | -32.4 | 16.4 µM [falling, single point] | 29.1 µM [falling, single point] |
| CC1(C)CC(=O)C2=C(C1)NC(Nc1nc3ccccc3o1)=NC21CCCCC1 |  | 1.64 µM [rising, partial curve] | 1.46 µM [rising, partial curve, poor fit] |
| O=C(CN1C(=O)c2cccc3cccc1c23)NCC1CCCO1 (centres undefined) | 2.97 |  | 29.1 µM [rising, single point] |
| CCOc1ccc(/C=C(\C#N)C(=O)Nc2ccccn2)cc1 | -12.6 |  | 18.4 µM [falling, single point] |

Full records as entered above:
Cc1cc(C(=O)COc2ccc(-c3nnco3)cc2)c(C)n1Cc1ccccc1 in the list: cell number change [%]: -32.3; AC50 [1]: 25.9 µM [falling, partial curve]
CC1(C)CC(=O)C2=C(C1)NC(Nc1nc3ccccc3o1)=NC21CCCCC1 in the list: AC50 [1]: 1.64 µM [rising, partial curve]; AC50 [2]: 1.46 µM [rising, partial curve, poor fit]
CCOC(=O)c1c(NC(=O)C2c3ccccc3Oc3ccccc32)sc(C(=O)N(CC)CC)c1C in the list: cell number change [%]: -20

The results go on.

| Structure (SMILES) | cell number change [%] | AC50 [1] | AC50 [2] |
| --- | --- | --- | --- |
| CCN1CCN(CCCN(Cc2ccco2)C(=S)Nc2ccc(Cl)c(C)c2)CC1 | -9.33 |  |  |
| COc1ccccc1C(=O)N/N=C(\C)CC(=O)Nc1ccccn1 | 5.86 |  |  |
| COc1cccc(N2CC(C(=O)Nc3nnc(SCC(=O)NCC4CCCO4)s3)CC2=O)c1 (centres undefined) | -40.8 | 0.58 µM [falling, full curve] | 0.517 µM [falling, full curve] |
| CC1CCCCC1NC(=O)Cn1nc(-c2ccccc2)ccc1=O (centres undefined) |  |  | 6.51 µM [falling, single point] |
| O=C(O)C1CCN(C(=O)COc2ccc3c4c(c(=O)oc3c2)CCC4)CC1 | 11.9 |  | 0.0058 µM [falling, full curve, poor fit] |
| N=C1C(c2nc(-c3ccc(F)cc3)cs2)=C(O)CN1CCCN1CCOCC1 | -21.3 |  | 29.1 µM [falling, single point] |
| COc1ccc2[nH]c3c(c2c1)CCn1c-3nc2sc(C(=O)Nc3ccccc3)c(C)c2c1=O |  | 6.51 µM [rising, single point] | 6.51 µM [rising, partial curve] |
| Cc1ccc(NC(=O)CSc2nc3ccccc3c3nc(CCc4c(C)n[nH]c4C)nn23)cc1F | 7.35 | 0.116 µM [rising, full curve] | 20.6 µM [falling, single point] |
| NC(=O)c1ccc(CN2CCC(Cc3ccccc3)CC2)cc1 | 139 |  |  |
| C=CCc1cccc2cc(C(=O)N3CCOCC3)c(=O)oc12 | 26.1 |  | 6.51 µM [rising, single point] |
| CC(=O)Nc1ccc(S(=O)(=O)N2CCn3cccc3C2C)cc1 (centres undefined) | -13.6 | 2.59 µM [falling, partial curve] | 0.058 µM [falling, full curve, poor fit] |
| COc1ccc(N2CCN(C3CCN(S(=O)(=O)c4ccc(F)cc4)CC3)CC2)cc1 | -0.288 |  | 3.66 µM [falling, partial curve, poor fit] |
| CCCCOc1nc2c(c(=O)n(C)c(=O)n2C)n1C | -9.58 |  |  |
| CCOC(=O)N1CCc2c(sc(N)c2C#N)C1 | 15.6 |  | 0.259 µM [rising, full curve, poor fit] |
| O=C(NCC(c1ccco1)N1CCCCC1)c1ccc(OCc2ccccc2)cc1 (centres undefined) | 6.85 | 4.61 µM [falling, single point] |  |
| COCCNC(=O)C(OC(=O)c1ccco1)c1ccccc1Cl (centres undefined) | -7.46 |  |  |
| N#Cc1c(/N=C/c2cccs2)sc2c1CCCCC2 | -44.1 | 20.6 µM [falling, partial curve, poor fit] |  |
| N#CCC(=O)Nc1ccc(C(=O)OCc2ccccc2Oc2ccccc2)cc1 | -28.6 |  |  |
| c1ccc(-c2nc(-c3ccco3)cs2)nc1 | -23.1 |  | 3.66 µM [rising, single point] |
